Results taken from US5945400A, “Nucleic acid-containing composition, preparation and use thereof” (Rhone-Poulenc Rorer SA, priority 1995, dated 1999).
Part of at least one peptide drawing is inferred or uncertain, most often the ends. No end group written: not given here.

Tested on: NIH3T3 cells
Assay: Variation of compound/DNA ratio in the presence of DOGS, luciferase activity
Assay type: cell-based
Conditions: DOGS charge ratio 1.8x, 0.75 μg DNA
Description: 1. A mixture of 10 μl composed of the following is prepared:
0.75 μg of pCMV-luc plasma DNA and a compound according to the invention in the ratio indicated, in 5% D-glucose, 150 mM NaCl buffer solution, with 10 mM HEPES (pH of the compaction solution: 7.2),
40 mM dioctadecylamidoglycylspermine (DOGS) in a charge ratio of 1.8×.
2. 4·10^5 cells from NIH3T3 lines are incubated with the above mixture at 37° C., under an atmosphere of 5% CO2 for 4 hours. The cells are then washed and recultured for 48 hours in a medium containing 10% serum (DMEM 10% SVF). The cell carpet is then lysed, 45 hours after the transfection, in 100 μl of lysis buffer (Promega), recovered and then centrifuged at 20,000 g for 5 minutes. The luciferase activity is measured on 5 μl of the supernatant, adding 25 μl of substrate (Promega). The reading is taken on an LKB luminometer, cumulating the RLUs (relative light units) over 20 seconds.

With “KTPKKAKKPKTPKKAKKP [H, LysThrProLysLysAlaLysLysProLysThrProLysLysAlaLysLysPro (COOH) (SEQ ID No.:4)]” the luciferase activity (PEP/DNA w/v 0.25) was 3300 RLU, the luciferase activity (PEP/DNA w/v 0.5) was 45,000 RLU and the luciferase activity (PEP/DNA w/v 1) was 84,000 RLU. The luciferase activity (PEP/DNA w/v 2) was 105,000 RLU.
